# For at least one compound, name, drawing or mass did not settle the structure.
# System: Uncommon Cancers (Neoplastic Disorders)
# Assay: Patients with uncommon cancers treated with AS2-1 in combination with other drugs: response and survival
# Assay type: in vivo, human
# Conditions: GIST patient, before the combination of AS and sunitinib
# Procedure: Patients diagnosed with 34 types of terminal cancer were treated with Antineoplaston AS2-1 (AS) therapy to reduce and/or abolish tumors and other signs of cancer and reduce and/or abolish expression of cancer-causing genes. In brief, patients admitted for treatment herein were diagnosed with terminal, Stage IV, cancers of varying types with multiple metastases and had failed standard-of-care regimens, except for a small number of patients who were treatment naive, but were not candidates for standard treatment because of very advanced disease and less than 6 months life expectancy. The estimated survival for these patients was from less than one to less than 6 months. The patients had radiological evidence of advanced metastatic cancer performed within 4 weeks from treatment start and genomic analysis, usually ordered at admission, including Guardant 360 blood test and/or Foundation One and/or Tempus blood or tissue test and/or SEMA4 tissue test. […]
# At baseline, history taking, physical examination, necessary laboratory, genomic and radiological evaluations were performed. Two largest perpendicular diameters of the radiologically significant lesions were measured including MRI contrast-enhanced lesions in the brain and spinal cord. […] Mixed response was determined when there was a CR or PR of some lesions and PD of the other lesions. […]
smiles,measurement,value
CCN(CC)CCNC(=O)c1c(C)[nH]c(/C=C2\C(=O)Nc3ccc(F)cc32)c1C [sunitinib],response to prior targeted therapy,failed to respond

# — US20230190694A1, “COMPOSITIONS FOR AND METHODS OF PRECISION CANCER TREATMENT” (priority 2021, published 2023)
